The results in this text go back to patent US20200392471.

The chains behind the UniProt entries cited, without tags or fusion partners.
UniProt P19821, whole entry: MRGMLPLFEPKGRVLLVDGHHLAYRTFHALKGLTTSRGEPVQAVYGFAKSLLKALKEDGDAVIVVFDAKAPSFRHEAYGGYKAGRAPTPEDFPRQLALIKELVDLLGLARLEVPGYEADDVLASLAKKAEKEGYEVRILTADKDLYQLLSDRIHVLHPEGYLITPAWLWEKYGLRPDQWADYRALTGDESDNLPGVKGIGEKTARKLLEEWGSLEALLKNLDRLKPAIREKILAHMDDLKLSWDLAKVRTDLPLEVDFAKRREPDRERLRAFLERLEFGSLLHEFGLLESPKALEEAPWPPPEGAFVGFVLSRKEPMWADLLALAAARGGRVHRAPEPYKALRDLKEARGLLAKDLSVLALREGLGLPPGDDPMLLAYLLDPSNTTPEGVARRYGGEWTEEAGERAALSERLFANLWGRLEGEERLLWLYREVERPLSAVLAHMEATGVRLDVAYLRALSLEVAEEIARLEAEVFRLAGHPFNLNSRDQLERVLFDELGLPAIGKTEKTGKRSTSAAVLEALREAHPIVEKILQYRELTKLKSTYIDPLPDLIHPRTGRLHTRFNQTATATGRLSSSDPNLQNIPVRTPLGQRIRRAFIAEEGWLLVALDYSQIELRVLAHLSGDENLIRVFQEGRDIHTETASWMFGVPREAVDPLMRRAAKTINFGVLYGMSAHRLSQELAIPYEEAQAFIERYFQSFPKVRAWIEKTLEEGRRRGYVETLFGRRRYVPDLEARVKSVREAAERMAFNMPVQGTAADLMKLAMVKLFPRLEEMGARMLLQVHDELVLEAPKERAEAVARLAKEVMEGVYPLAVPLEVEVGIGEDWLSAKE

In data set [1] the target is T1, Afu Uracil-DNA Glycosylase (UniProt O28007).
T1 sequence (looked up, limits assumed): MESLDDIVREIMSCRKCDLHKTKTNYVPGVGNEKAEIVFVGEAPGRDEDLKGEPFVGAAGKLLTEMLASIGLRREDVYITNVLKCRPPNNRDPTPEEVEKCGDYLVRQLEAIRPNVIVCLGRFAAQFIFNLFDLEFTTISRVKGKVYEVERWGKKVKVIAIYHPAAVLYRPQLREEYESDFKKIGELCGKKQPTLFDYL
Kind of data set: activity assay. Particulars: deoxyuridine at loop position 12; UDG reactivates blocked Taq, Phusion, Q5, Vent and Deep Vent; purified recombinant protein; protein details: New England Biolabs M0279S; folded or branched DNA.

In data set [2] the target is T2, Bst DNA polymerase large fragment (UniProt P52026).
T2 sequence (looked up, limits assumed): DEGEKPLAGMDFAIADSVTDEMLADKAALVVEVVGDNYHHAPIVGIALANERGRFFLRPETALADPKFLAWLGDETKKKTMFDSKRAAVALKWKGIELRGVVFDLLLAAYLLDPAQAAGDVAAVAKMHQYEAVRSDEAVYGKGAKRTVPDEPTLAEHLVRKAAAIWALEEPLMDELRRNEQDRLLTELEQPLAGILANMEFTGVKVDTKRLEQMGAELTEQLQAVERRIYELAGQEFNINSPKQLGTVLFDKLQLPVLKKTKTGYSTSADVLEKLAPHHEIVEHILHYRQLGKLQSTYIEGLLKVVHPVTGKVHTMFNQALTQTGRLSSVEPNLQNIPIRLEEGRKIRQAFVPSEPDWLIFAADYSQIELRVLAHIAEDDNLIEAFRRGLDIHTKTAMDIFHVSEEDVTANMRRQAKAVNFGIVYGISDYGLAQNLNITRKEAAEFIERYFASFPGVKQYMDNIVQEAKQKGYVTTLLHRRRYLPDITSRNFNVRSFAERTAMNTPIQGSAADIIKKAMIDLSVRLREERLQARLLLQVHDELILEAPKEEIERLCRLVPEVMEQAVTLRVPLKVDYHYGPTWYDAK
Kind of data set: inhibition of the protein. Particulars: deoxyuridine at loop position 12; not inactivated at 80 nM; hairpin probe extension at 60 or 65 C; purified recombinant protein; protein details: large fragment, New England Biolabs M0275S; folded or branched DNA.

Data set [3] deals with T3, Deep Vent DNA polymerase (UniProt Q51334).
T3 sequence (looked up, limits assumed): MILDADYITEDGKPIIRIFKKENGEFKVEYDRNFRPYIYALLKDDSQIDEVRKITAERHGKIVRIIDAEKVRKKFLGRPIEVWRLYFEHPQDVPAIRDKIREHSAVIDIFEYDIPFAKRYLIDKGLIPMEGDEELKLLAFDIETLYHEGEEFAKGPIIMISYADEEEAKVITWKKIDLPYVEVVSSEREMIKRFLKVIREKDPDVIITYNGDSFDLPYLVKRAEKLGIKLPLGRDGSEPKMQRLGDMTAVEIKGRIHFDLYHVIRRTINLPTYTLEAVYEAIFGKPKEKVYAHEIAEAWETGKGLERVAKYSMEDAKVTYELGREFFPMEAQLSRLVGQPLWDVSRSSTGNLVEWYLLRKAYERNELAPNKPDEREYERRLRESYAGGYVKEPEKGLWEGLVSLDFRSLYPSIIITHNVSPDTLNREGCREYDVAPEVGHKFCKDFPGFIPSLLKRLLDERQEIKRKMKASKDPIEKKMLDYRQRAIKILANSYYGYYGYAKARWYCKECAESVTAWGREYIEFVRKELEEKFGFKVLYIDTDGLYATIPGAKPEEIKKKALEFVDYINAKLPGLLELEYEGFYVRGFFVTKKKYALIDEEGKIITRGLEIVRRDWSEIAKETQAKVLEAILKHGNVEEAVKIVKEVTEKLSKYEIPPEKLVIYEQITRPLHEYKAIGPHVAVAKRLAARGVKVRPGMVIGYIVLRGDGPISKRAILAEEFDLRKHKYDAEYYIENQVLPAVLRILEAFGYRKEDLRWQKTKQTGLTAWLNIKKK
Kind of data set: inhibition of the protein. Particulars: deoxyuridine at loop position 12; 80 nM; hairpin probe extension at 60 or 65 C; 5 mM MgCl2, 50 mM KCl, pH 8.0; efficiency variable; purified recombinant …; protein details: New England Biolabs M0258S; folded or branched DNA.

For data set [4], the system named is Phusion DNA polymerase. Kind of data set: inhibition of the protein. The conditions noted are these: deoxyuridine at loop position 12; 80 nM; hairpin probe extension at 60 or 65 C; 5 mM MgCl2, 50 mM KCl, pH 8.0; efficiency variable; purified recombinant …; protein details: New England Biolabs M0530S; folded or branched DNA.
The test system of data set [5] is Q5 DNA polymerase. Kind of data set: inhibition of the protein. The conditions noted are these: deoxyuridine at loop position 12; 80 nM; hairpin probe extension at 60 or 65 C; 5 mM MgCl2, 50 mM KCl, pH 8.0; efficiency variable; purified recombinant …; protein details: New England Biolabs M0491S; folded or branched DNA.
Data set [6] has as its target Taq DNA polymerase (UniProt P19821). Kind of data set: inhibition of the protein. Particulars: deoxyuridine at loop position 12; 80 nM aptamer blocks PCR and hairpin probe extension; 5 mM MgCl2, 50 mM KCl, pH 8.0; purified recombinant protein; protein details: GenScript E00007; folded or branched DNA.
Data set [7] concerns the target T4, Vent DNA polymerase (UniProt P30317).
T4 sequence (looked up, limits assumed): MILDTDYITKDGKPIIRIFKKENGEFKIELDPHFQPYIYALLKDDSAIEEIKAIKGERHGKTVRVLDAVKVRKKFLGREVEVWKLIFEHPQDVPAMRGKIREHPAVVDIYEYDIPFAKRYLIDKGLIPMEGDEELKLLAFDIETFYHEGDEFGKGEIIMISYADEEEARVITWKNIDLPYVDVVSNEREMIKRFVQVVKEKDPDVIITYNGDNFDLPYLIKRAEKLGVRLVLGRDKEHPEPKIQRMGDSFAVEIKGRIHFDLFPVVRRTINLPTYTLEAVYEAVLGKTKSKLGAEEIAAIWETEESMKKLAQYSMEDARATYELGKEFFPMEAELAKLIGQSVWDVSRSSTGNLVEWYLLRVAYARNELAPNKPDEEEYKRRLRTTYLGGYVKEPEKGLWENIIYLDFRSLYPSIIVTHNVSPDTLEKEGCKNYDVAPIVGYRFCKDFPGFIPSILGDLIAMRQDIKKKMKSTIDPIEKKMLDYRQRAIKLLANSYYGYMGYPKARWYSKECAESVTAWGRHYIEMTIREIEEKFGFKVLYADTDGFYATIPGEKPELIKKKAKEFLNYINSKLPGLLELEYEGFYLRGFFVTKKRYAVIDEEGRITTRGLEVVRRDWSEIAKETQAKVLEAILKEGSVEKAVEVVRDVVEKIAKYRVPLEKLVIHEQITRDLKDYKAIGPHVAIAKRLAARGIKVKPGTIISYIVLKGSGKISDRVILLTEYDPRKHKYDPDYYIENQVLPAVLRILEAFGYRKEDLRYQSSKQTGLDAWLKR
Kind of data set: inhibition of the protein. Particulars: deoxyuridine at loop position 12; 80 nM; hairpin probe extension at 60 or 65 C; 5 mM MgCl2, 50 mM KCl, pH 8.0; efficiency variable; purified recombinant …; protein details: New England Biolabs M0254S; folded or branched DNA.

For some of these results: No signal at the amounts used counts as a negative. For some of these results: Tags and fusion partners may be left off the protein sequences shown. For some of these results: Construct, isoform or probe ends are uncertain for at least one entry.

As to “TGCGCGATTTAAAGCGATTCTTAGCGTTUTCGCTTTAAATCGCGCAT [aptamer SEQ ID NO:12]”, the “activity on this sequence” value in data set [1] is reported as “active”. For the same sequence, the “functional effect of the aptamer” value is reported as “not active” in data set [2]; “active” in data set [3]; “active” in data set [4]; “active” in data set [5]; “active” in data set [6]; “active” in data set [7].
